Our source for the binding values is publication PMC2193228.

Protein sequences, listed by entry. Tags and fused reporters are not part of them.
UniProt Q9Y812: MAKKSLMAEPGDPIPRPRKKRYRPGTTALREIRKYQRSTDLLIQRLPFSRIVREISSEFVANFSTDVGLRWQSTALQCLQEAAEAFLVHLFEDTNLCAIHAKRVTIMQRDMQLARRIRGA

These are yes or no findings as the source states them, for the method shown. Binding seen in cells or lysates may run through a third protein. Some entries that bind do so weakly or less than the wild type. For part of these data: Tags and fused reporters may be left off the sequences shown.

For assay [1], the target named is Sim3 (S. pombe (endogenous in S. pombe)) (UniProt Q9USQ4). Put plainly: co-IP; S. pombe cell extracts; IP with sheep anti-GFP or rabbit anti-Sim3, western with rabbit anti-Sim3 or rabbit anti-GFP.
Another assay deals with Sim3-143-GFP (S. pombe) (UniProt Q9USQ4). Put plainly: co-IP; S. pombe cell extracts; IP with sheep anti-GFP or mouse anti-myc (9E10), western with rabbit anti-GFP or rabbit anti-myc; cells grown at 25°C or 36°C (6 hr).
A further assay has as its target Sim3-GFP (S. pombe) (UniProt Q9USQ4). The assay is described as above.

Take “GFP-CENP-A^Cnp1 (from UniProt Q9Y812 1-120)”: the binding entry in assay [1] was “binds”.

For “myc-CENP-A^Cnp1 (from UniProt Q9Y812 1-120)”, the binding entry with Sim3-143-GFP (S. pombe) and in the assay with Sim3-GFP (S. pombe) was “binds” in each case.
